# Reference: patent publication US11913924B2, “Ion generation using modified wetted porous materials” (Purdue Research Foundation, priority 2011, dated 2024)
# Tests used:
# [1] = Paper spray of cotinine in fresh liquid saliva and urine, LOQ
# [2] = Paper spray of fresh liquid bovine whole blood on printer paper, LOQ
# [3] = Paper spray mass spectrometry of 15 μL dried blood spots, limit of detection; parameters: species or system bovine; conditions: paper spray MS, TSQ, SRM; blood dried two hours, no coagulant
# [4] = Paper spray mass spectrometry of 10 μL fresh whole blood with pre-spotted alum coagulant, limit of detection; parameters: species or system bovine; conditions: paper spray MS, TSQ, SRM; pre-spotted alum and internal standard
# [5] = Paper spray of blood, air-dry method versus pre-spotted drying agent (MgSO4), limit of detection
# [6] = Paper spray with handheld Mini 11 mass spectrometer, drugs in dried blood spots, LOQ; parameters: species or system bovine; conditions: for LOQ with Chromatography paper: ET31 chromatography paper, 9:1 methanol/water; for LOQ with silica coated paper: 9:1 dichloromethane/isopropanol
# [7] = Paper spray with triple quadrupole (TSQ), drugs in dried blood spots on silica-coated paper, LOQ; parameters: species or system bovine; conditions: 9:1 dichloromethane/isopropanol, 5 μL dried blood spots
smiles,measurement,setting,value
CN1C(=O)CC[C@H]1c1cccnc1 [cotinine],LOQ,"[1]; 5 μL fresh liquid saliva, Grade 1 chromatography paper, 30 μL acetonitrile",2 ng/mL
same,LOQ,[1]; urine with 20 mM ammonium acetate added,5 ng/mL
same,lowest concentration at which cotinine could be detected,"[1]; urine, acetonitrile as the solvent, no ammonium acetate",≥ 30 ng/mL
same,LOQ,"[2]; 10 μL fresh bovine whole blood, printer paper, 90% dichloromethane and 10% isopropanol, TSQ",1 ppb
"O=P1(N(CCCl)CCCl)NCCCO1 (stereo not shown) [Cyclophosphamide, cyclophosphamide]",15 μL Dried Blood Spot LLOD,[3],13 ng/mL
same,10 μL Fresh Blood w/Alum LLOD,[4],11 ng/mL
CC/C(=C(\c1ccccc1)c1ccc(OCCN(C)C)cc1)c1ccccc1 [Tamoxifen],15 μL Dried Blood Spot LLOD,[3],13 ng/mL
same,10 μL Fresh Blood w/Alum LLOD,[4],8 ng/mL
same,LOD,"[5]; drying method 2 Hours Air, IS mixed",18 ng/mL
same,LOD,"[5]; drying method MgSO4, IS pre-spotted",56 ng/mL
CCN(CC)CC(=O)Nc1c(C)cccc1C [lidocaine],LOQ with Chromatography paper,[6],100 ng/mL
same,LOQ with silica coated paper,[6],20 ng/mL
same,LOQ,[7],0.1 ng/mL
CN(C)CCC=C1c2ccccc2CCc2ccccc21 [amitriptyline],LOQ with Chromatography paper,[6],100 ng/mL
same,LOQ with silica coated paper,[6],10 ng/mL
same,LOQ,[7],0.1 ng/mL
CC[C@@]1(O)C(=O)OCc2c1cc1n(c2=O)Cc2cc3c(CN(C)C)c(O)ccc3nc2-1 [topotecan],10 μL Fresh Blood w/Alum LLOD,[4],17 ng/mL
CN1CCCC1c1cccnc1 (stereo not shown) [nicotine],LOQ,"[2]; 10 μL fresh blood on print paper, extracted with 10 μL acetonitrile, dried, then sprayed with 20 μL acetonitrile",1 ppb
same,LOQ,"[2]; fresh bovine whole blood, printer paper, acetonitrile, TSQ",0.1 ppb
